The list is a part of this screen's results and no random one: it gathers tests that were run many times, whatever their T/C, doses with no T/C, and many T/C values between a quarter and a half above the control. Other doses and runs of a compound stand elsewhere. T/C is the treated group as % of the vehicle group. Some doses have a count of surviving animals in place of a T/C: the source holds a T/C of zero for them, seemingly a mark for toxic or unscored doses. Some survivor counts are full or nearly so, which does not show that the dose was tolerated: the source hardly ever lists a survival T/C far under the control, and the zero likely stands for such cases as well. Counts of survivors are from the toxicity check (mostly the fifth day) where no day follows; animals may have died later. Schedules are NCI's codes, taken here to give the interval after Q, in days (D) or hours (H), and the number of doses after X. Some doses were run more than once; the results are listed from low to high. Signs of the kind (2×) say how often a value occurs here. Some schedules carry Z or #; the key to these is not given. For survival time, this PubChem deposit counts one and a half times the control or more as active, and values a quarter to a half above the control carry no call in these data; other NCI protocols may use other cut-offs. Some T/C values carry the count of animals alive at the toxicity check (mostly the fifth day); where none is given, no animal had died by that day.

For this test, the system named is L1210 leukemia ip in BDF1 mice, survival T/C. In words: NCI In Vivo Anticancer Drug Screen. Data for tumor model L1210 Leukemia (intraperitoneal) in B6D2F1 (BDF1) mice. Particulars: T/C endpoint: mean survival time, higher T/C = longer survival.
[1] abbreviates: dose: 400.0 mg/kg/injection, schedule: Q04DX002 (ip), vehicle: Klucel (hydroxypropylcellulose) (HPC).
The mark [2] stands for this setting: dose: 100.0 mg/kg/injection, schedule: Q01DX009 (ip), vehicle: saline.
Setting [3] is: dose: 300.0 mg/kg/injection, schedule: Q01DX009 (ip), vehicle: other.
Setting [4] is: dose: 400.0 mg/kg/injection, schedule: Q01DX009 (ip), vehicle: saline.
[5] abbreviates: dose: 100.0 mg/kg/injection, schedule: Q04DX003 (ip), vehicle: saline with Tween-80.
The mark [6] stands for this setting: dose: 200.0 mg/kg/injection, schedule: Q04DX003 (ip), vehicle: saline with Tween-80.
Setting [7] is: dose: 400.0 mg/kg/injection, schedule: Q04DX003 (ip), vehicle: saline with Tween-80.
[8] abbreviates: dose: 300.0 mg/kg/injection, schedule: Q01DX001 (ip), vehicle: other.
Where [9] appears, read: dose: 400.0 mg/kg/injection, schedule: Q04DX003 (ip), vehicle: Klucel (hydroxypropylcellulose) (HPC).
[10] abbreviates: dose: 100.0 mg/kg/injection, schedule: Q01DX009 (ip), vehicle: saline with Tween-80.
[11] abbreviates: dose: 200.0 mg/kg/injection, schedule: Q01DX009 (ip), vehicle: saline with Tween-80.

As for `NNC(=O)c1ccc(Br)cc1`, for the setting “dose: 100.0 mg/kg/injection, schedule: Q01DX009 (ip), vehicle: Klucel (hydroxypropylcellulose) (HPC)”, the T/C is 136 % of control. For the same compound, the survivor count is, setting by setting: (dose: 200.0 mg/kg/injection, schedule: Q01DX009 (ip), vehicle: Klucel (hydroxypropylcellulose) (HPC)) 5 of 6; (dose: 400.0 mg/kg/injection, schedule: Q01DX009 (ip), vehicle: Klucel (hydroxypropylcellulose) (HPC)) 0 of 6.

Take `CC12CCC(O)CC1=CCC1C2CCC2(C)c3nc(C#N)c(=N)n(O)c3CC12` (stereo not given): the survivor count under setting [1] is reported as 3 of 3.

Take `CC1(C)N=C(N)N=C(N)N1c1cccc(OCCOc2ccc(NC(=O)CBr)cc2)c1`: under setting [2], the T/C is 133 % of control. Moreover, the survivor count was 1 of 6 under setting [3] and 1 of 6 under setting [4].

For the compound `CN1C(=O)C(Cl)=C(Cl)C1=O`, the survivor count (dose: 6.25 mg/kg/injection, schedule: Q04DX003 (ip), vehicle: saline with Tween-80) was 5 of 6; the survivor count (dose: 12.5 mg/kg/injection, schedule: Q04DX003 (ip), vehicle: saline with Tween-80) is listed as 2 of 6; the survivor count (dose: 25.0 mg/kg/injection, schedule: Q04DX003 (ip), vehicle: saline with Tween-80) is 0 of 6 (2×); the survivor count (dose: 50.0 mg/kg/injection, schedule: Q04DX003 (ip), vehicle: saline with Tween-80) is listed as 0 of 6; the survivor count under setting [5] is on record as 0 of 6; the survivor count under setting [6] was 0 of 6. Moreover, under setting [7], the survivor count is 0 of 6.

As to `CCn1c(=O)oc2ccccc2c1=S`, the survivor count (dose: 400.0 mg/kg/injection, schedule: Q04DX003 (ip), vehicle: saline) was 4 of 4.

Turning to `CCSc1nc2ccccc2s1`, the survivor count (dose: 400.0 mg/kg/injection, schedule: Q01DX001 (ip), vehicle: other) is on record as 0 of 3.

In the case of `c1cc2c3c(cccc3c1)-c1nc3ccccc3nc1-2`, the survivor count (dose: 75.0 mg/kg/injection, schedule: Q01DX Z (ip), vehicle: methylcellulose (MC)) was 0 of 6; the survivor count (dose: 160.0 mg/kg/injection, schedule: Q01DX Z (ip), vehicle: methylcellulose (MC)) is recorded as 0 of 6; the survivor count (dose: 240.0 mg/kg/injection, schedule: Q01DX Z (ip), vehicle: methylcellulose (MC)) was 0 of 6; the survivor count (dose: 360.0 mg/kg/injection, schedule: Q01DX Z (ip), vehicle: methylcellulose (MC)) was 0 of 6; the survivor count (dose: 540.0 mg/kg/injection, schedule: Q01DX Z (ip), vehicle: methylcellulose (MC)) is recorded as 0 of 6.

As for `C=CCCC1(CCC(C)C)C(=O)NC(=O)NC1=O`, under “dose: 300.0 mg/kg/injection, schedule: Q01DX001 (ip), vehicle: saline”, the survivor count is recorded as 1 of 6.

`Cc1cnnn1-c1cccc(C(F)(F)F)c1`: the survivor count (dose: 200.0 mg/kg/injection, schedule: Q04DX002 (ip), vehicle: Klucel (hydroxypropylcellulose) (HPC)) was 3 of 3 and the survivor count under setting [1] was 3 of 3.

Take `Nc1ccc(N)c(C(=O)O)c1`: the survivor count under setting [8] is given as 3 of 6.

Take `C1CN(P2(N3CC3)=NP(N3CC3)(N3CC3)=NP(N3CC3)(N3CC3)=N2)CCO1` (stereo not given): the T/C reads like this: (dose: 12.5 mg/kg/injection, schedule: Q01DX009 (ip), vehicle: saline) 138 % of control; (dose: 25.0 mg/kg/injection, schedule: Q01DX009 (ip), vehicle: saline) 146 % of control; (dose: 50.0 mg/kg/injection, schedule: Q01DX001 (ip), vehicle: saline, evaluated on day 30) 130 % of control; (dose: 50.0 mg/kg/injection, schedule: Q01DX001 (ip), vehicle: saline, evaluated on day 60) 140 % of control. The survivor count is 10 of 10 and 6 of 6 under setting [2]; 1 of 6 (dose: 200.0 mg/kg/injection, schedule: Q01DX001 (ip), vehicle: saline); 2 of 6, 5 of 10, 4 of 6 (dose: 200.0 mg/kg/injection, schedule: Q01DX009 (ip), vehicle: saline); 0 of 6 and 10 of 10 (dose: 400.0 mg/kg/injection, schedule: Q01DX001 (ip), vehicle: saline); 5 of 6 under setting [4].

In the case of `CC(=O)c1cc(C)ccc1O`, under setting [9], the survivor count is reported as 2 of 6.

Turning to `CSc1ccc(NC(=O)Oc2ccc3c(C)cc(=O)oc3c2)cc1`, the T/C under setting [10] was 90, 90 [5 of 6 alive], 97, 99 % of control. In addition, the survivor count under setting [11] is 4 of 6 and 3 of 3; the survivor count (dose: 400.0 mg/kg/injection, schedule: Q01DX009 (ip), vehicle: saline with Tween-80) is 3 of 3 and 6 of 6.

Turning to `O=C(Nc1cccc(C(=O)Nc2ccc(C3=NCCN3)cc2)c1)c1ccc(C2=NCCN2)cc1`, the T/C (dose: 60.0 mg/kg/injection, schedule: Q01DX Z (ip), vehicle: carboxymethylcellulose (CMC)) is 144 % of control. Moreover, the survivor count by setting is: (dose: 240.0 mg/kg/injection, schedule: Q01DX Z (ip), vehicle: saline) 0 of 6; (dose: 480.0 mg/kg/injection, schedule: Q01DX Z (ip), vehicle: saline) 0 of 6.

Turning to `COc1ccc2nc(N)sc2c1`, the survivor count by setting is: under setting [10], 3 of 6; under setting [11], 0 of 6.

For `O=S(=O)(OCCCl)c1ccc(Cl)c(S(=O)(=O)OCCCl)c1`, the survivor count is given as 1 of 3 under setting [6] and 0 of 3 under setting [7].

For `Oc1ccc2ccccc2c1N=Nc1ccc(F)cc1`, under “dose: 400.0 mg/kg/injection, schedule: Q01DX009 (ip), vehicle: carboxymethylcellulose (CMC)”, the survivor count is listed as 6 of 6.

For `COc1ccc2nccc(C=O)c2c1`, the survivor count (dose: 50.0 mg/kg/injection, schedule: Q01DX009 (ip), vehicle: saline with Tween-80) is 2 of 6. In addition, the T/C under setting [5] was 148 % of control.

With `CN(C)Cc1ccccc1C(=O)C(c1ccccc1)c1ccccc1`, the survivor count (dose: 125.0 mg/kg/injection, schedule: Q01DX Z (ip), vehicle: methylcellulose (MC)) is 1 of 6.

Regarding `O=C1C(NCC(O)CO)=C(N2CC2)C(=O)C(NCC(O)CO)=C1N1CC1` (stereo not given), the T/C runs as follows: (dose: 0.25 mg/kg/injection, schedule: Q04DX003 (ip), vehicle: saline) 129 % of control; (dose: 0.5 mg/kg/injection, schedule: Q04DX003 (ip), vehicle: saline) 129 % of control; (dose: 1.0 mg/kg/injection, schedule: Q01DX009 (ip), vehicle: saline) 147 % of control; (dose: 1.0 mg/kg/injection, schedule: Q04DX003 (ip), vehicle: saline) 138 % of control; (dose: 2.0 mg/kg/injection, schedule: Q04DX003 (ip), vehicle: saline) 143 % of control. In addition, the survivor count is 6 of 6 (dose: 8.0 mg/kg/injection, schedule: Q01DX001 (ip), vehicle: saline) and 4 of 6 (dose: 16.0 mg/kg/injection, schedule: Q01DX001 (ip), vehicle: saline).

`CNc1ncnc(Cl)c1N`: for the setting “dose: 400.0 mg/kg/injection, schedule: Q01DX001 (ip), vehicle: Klucel (hydroxypropylcellulose) (HPC)”, the survivor count is 0 of 6.

For `N#CCc1ccc(NN)cc1`, the survivor count under setting [3] was 0 of 6.

As for `CC(OC(=O)CCN1CC1)C1CC1` (stereo not given), the survivor count is reported as 4 of 6 (dose: 40.0 mg/kg/injection, schedule: Q01DX009 (ip), vehicle: Klucel (hydroxypropylcellulose) (HPC)); 1 of 6 (dose: 80.0 mg/kg/injection, schedule: Q01DX009 (ip), vehicle: Klucel (hydroxypropylcellulose) (HPC)); 2 of 6 (dose: 200.0 mg/kg/injection, schedule: Q04DX003 (ip), vehicle: Klucel (hydroxypropylcellulose) (HPC)); 0 of 6 under setting [9].

In the case of `CCCOP(=O)(OCCC)C(OC(=O)C(C)C)=C(C)C`, the survivor count under setting [7] was 1 of 6.

For the compound `Clc1ccc2c(NCCN3CCCCCC3)nc(C(Cl)(Cl)Cl)nc2c1`, under setting [8], the survivor count is on record as 0 of 6.

Take `CCCCNc1ccc([N+](=O)[O-])cc1[N+](=O)[O-]`: the survivor count (dose: 400.0 mg/kg/injection, schedule: Q04DX003 (ip), vehicle: other) is 6 of 6.

The values above are taken from PubChem BioAssay AID248 (DTP/NCI, 2004).
